Assay results from PubChem BioAssay AID1671190 (National Center for Advancing Translational Sciences (NCATS), 2021).
The whole screen tested about 580,000 compounds, of which about 6,100 (1.1%) were called active. Inconclusive means that the source gave no clear call. Such entries were picked first, then a sample of the others. The call rests on the fitted dose curve; in most records, active means well fitted inhibition curve with a large enough effect; inconclusive means small, poorly fitted or top-dose-only effect, or another doubt; inactive means no such curve, though single readings can be large or run the other way. A potency beside an inconclusive call is a rough fit, not a confirmed value.
On the % scale 0 is the no-effect control and ±100 the full control effect; potency means the concentration at half of the fitted maximal effect.

Sequences of proteins named here, by UniProt entry; tags and fusion partners are left off.
UniProt P18054, whole entry, looked up: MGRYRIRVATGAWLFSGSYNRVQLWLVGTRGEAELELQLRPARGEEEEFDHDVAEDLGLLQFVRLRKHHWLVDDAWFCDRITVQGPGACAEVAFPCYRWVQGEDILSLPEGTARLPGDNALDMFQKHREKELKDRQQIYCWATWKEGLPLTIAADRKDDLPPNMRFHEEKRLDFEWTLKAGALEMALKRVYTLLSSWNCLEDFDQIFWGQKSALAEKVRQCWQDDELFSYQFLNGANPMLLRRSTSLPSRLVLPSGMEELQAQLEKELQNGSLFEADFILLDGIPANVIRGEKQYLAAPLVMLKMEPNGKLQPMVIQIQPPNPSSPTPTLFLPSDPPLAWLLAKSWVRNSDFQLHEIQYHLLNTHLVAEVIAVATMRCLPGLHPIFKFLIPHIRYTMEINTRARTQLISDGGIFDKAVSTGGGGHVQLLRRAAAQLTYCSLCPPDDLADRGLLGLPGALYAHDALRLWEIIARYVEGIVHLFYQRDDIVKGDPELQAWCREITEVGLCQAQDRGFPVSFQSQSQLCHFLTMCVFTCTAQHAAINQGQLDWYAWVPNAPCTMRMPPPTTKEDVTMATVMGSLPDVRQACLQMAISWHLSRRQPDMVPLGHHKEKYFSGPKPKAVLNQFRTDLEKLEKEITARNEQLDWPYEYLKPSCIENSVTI

The compounds below were run against Polyunsaturated fatty acid lipoxygenase ALOX12 (Homo sapiens) (UniProt P18054) (assay: Primary qHTS assay for inhibitors of human arachidonate 12S-lipoxygenase (ALOX12): Round 2). Conditions: purified 12hLO, xylenol orange hydroperoxide absorbance; activity change, negative = inhibition: at 108 µM (top of the series) unless noted.
How it was run: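 Hydroperoxide product was detected by ferrous iron/xylenol orange as the 573 to 405 nm absorbance ratio. Arachidonic acid at 40 uM (final) was turned over for 30 min at room temperature by 150 nM human 12hLO, pH 7.0 Hepes buffer, after 15 min compound preincubation.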
In the case of `S=C(NCCc1ccccc1)NC1CCCc2ccccc21` (configuration not stated), the Potency is reported as active: 14.1 µM.
With `Cc1ccc2c(c1)Oc1ccc([N+](=O)[O-])cc1C(=O)N2` the Potency was inconclusive: 63.1 µM [inhibitor, partial curve, poor fit].
In the case of `CCc1ccc2c(CSc3nc4nc(C)cc(C)n4n3)cc(=O)oc2c1`, the Potency is reported as inconclusive: 31.6 µM [inhibitor, partial curve, poor fit].
In the case of `Cc1ccc(CNC(=O)Cn2ccc3cc(S(=O)(=O)N4CCCCCC4)ccc32)cc1`, the “activity change, negative = inhibition” value is reported as inactive: -1.24%.
`S=C1NC(c2ccccc2)=CC(c2ccccc2)N1` (configuration not stated) was tested, and the Potency was inconclusive: 44.7 µM [inhibitor, partial curve, poor fit].
With `COc1cccc(Cn2cnc(-c3ccccc3OC)c2-c2ccco2)c1` the Potency was inconclusive: 44.7 µM [inhibitor, partial curve, poor fit].
With `CC1CCCC(C(=O)O)N1C(=O)CCS` (configuration not stated) the Potency was inconclusive: 50.1 µM [inhibitor, partial curve, poor fit].
With `Cc1ccc2nc(N3C(=O)C(O)=C(C(=O)c4ccco4)C3c3cccs3)sc2c1` (configuration not stated) the Potency was active: 17.8 µM.
`O=C(CSc1nc2ccccc2c(=O)n1Cc1ccco1)c1ccccc1` was tested, and the “activity change, negative = inhibition” value was inactive: -14.5%.
With `CN1CCCC2(C1)CN(C)c1ccc(C(=O)Nc3ccc(F)cc3)cc12` (configuration not stated) the Potency was inconclusive: 63.1 µM [inhibitor, full curve].
For `CN(C(=O)Nc1ccc(F)cc1F)C(c1ccc(Cl)cc1)c1nccn1C` (configuration not stated), the “activity change, negative = inhibition” value was inactive: 30.4%.
In the case of `O=C1CSC(c2ccc(Cl)c(Cl)c2)N1c1nccs1` (configuration not stated), the Potency is reported as inconclusive: 70.8 µM [inhibitor, partial curve, poor fit].
For `COc1ccc(C(=O)Nc2ccc([C@H]3OCC(=O)N(C(C)C)[C@@H]3CO)cc2)cc1OC`, the “activity change, negative = inhibition” value was inactive: -15.5% [at 176 µM].
For `Cc1cccc(/C=C2\CS/C(=C\c3cccc(C)c3)C2=O)c1`, the Potency was inconclusive: 56.2 µM [inhibitor, partial curve, poor fit].
`CCOC(=O)c1c(C)nc2sc3c(=O)n(-c4ccc(C(C)=O)cc4)cnc3c2c1-c1ccc(Cl)cc1` was tested, and the “activity change, negative = inhibition” value was inactive: 437%.
With `Cc1cccnc1NCc1ccc(O)c2ncccc12` the Potency was inconclusive: 35.5 µM [inhibitor, partial curve, poor fit].
For `Cc1cc(CS(=O)(=O)CC(=O)NC2CCCCCC2)no1`, the Potency was inconclusive: 35.5 µM [inhibitor, partial curve, poor fit].
For `CCCCCS(=O)(=O)c1oc(-c2cccs2)nc1S(=O)(=O)c1ccc(C)cc1`, the Potency was inconclusive: 50.1 µM [inhibitor, partial curve, poor fit].
For `O=C(NC(=S)Nc1ccccc1[N+](=O)[O-])c1cncc(Br)c1`, the Potency was inconclusive: 50.1 µM [inhibitor, partial curve, poor fit].
`Cc1ccc(C)c(-n2c(Cc3cccs3)n[nH]c2=S)c1` was tested, and the Potency was inconclusive: 44.7 µM [inhibitor, partial curve, poor fit].
`O=C(Nc1ccc([N+](=O)[O-])cc1)c1ccc(Cn2cc([N+](=O)[O-])cn2)cc1` was tested, and the “activity change, negative = inhibition” value was inactive: -8.86%.
With `COc1cccc(-c2cc(C(=O)NCc3ccccn3)[nH]n2)c1` the “activity change, negative = inhibition” value was inactive: 4.45%.
In the case of `C[C@H](NC(=O)[C@@H]1CCCN1C(=O)OC(C)(C)C)c1ccccc1`, the “activity change, negative = inhibition” value is reported as inactive: -17.3%.
In the case of `CC(C)C(=O)Nc1cc(S(=O)(=O)Nc2ccc(Cl)cc2)ccc1Cl`, the “activity change, negative = inhibition” value is reported as inactive: -16%.
For `CN1CCN(c2ncc3nc(-c4cccc(C#N)c4)c(=O)n(Cc4ccc(F)cc4)c3n2)CC1`, the Potency was inconclusive: 44.7 µM [inhibitor, partial curve, poor fit].
`O=C1CCN(C(=O)CSc2ccc(Cl)cc2)N1` was tested, and the “activity change, negative = inhibition” value was inactive: -18.7%.
With `CCCCn1nc(C(=O)NCCc2ccc(S(N)(=O)=O)cc2)c2ccccc2c1=O` the “activity change, negative = inhibition” value was inactive: -26.3%.
`N#Cc1ccc(NC(=O)COc2ccc(-n3cnnn3)cc2)cc1` was tested, and the Potency was inconclusive: 100 µM [inhibitor, single point].
For `Cc1cccc(OCC(=O)N(Cc2cccs2)c2ccc(Cl)cc2)c1C`, the “activity change, negative = inhibition” value was inactive: 0%.
In the case of `Cn1c(SCC(=O)NC2CCCCC2)nnc1-c1ccccn1`, the Potency is reported as inconclusive: 44.7 µM [inhibitor, partial curve, poor fit].
For `CC(C)CC(NC(=O)C(COCc1ccccc1)NC(=O)OC(C)(C)C)C(=O)NN` (configuration not stated), the “activity change, negative = inhibition” value was inactive: 7.9%.
In the case of `CC(C)CCNC(=O)c1cc(-c2ccco2)nc2ccccc12`, the Potency is reported as inconclusive: 100 µM [inhibitor, partial curve, poor fit].
`O=C(Nc1ccc(Cl)cc1)c1nc2c(o1)CCN(Cc1cc(F)ccc1F)CC2` was tested, and the Potency was inconclusive: 20 µM [inhibitor, full curve].
`O=S(=O)(Nc1ccc2c(c1)nc1n2CCOC1)c1ccccc1` was tested, and the Potency was inconclusive: 7.08 µM [inhibitor, full curve, poor fit].
In the case of `COc1ccc2[nH]cc(CCNc3cc(-c4cccnc4)ncn3)c2c1`, the Potency is reported as active: 31.6 µM.
`NC(=O)c1ccsc1NC(=O)COC(=O)CCOc1ccccc1` was tested, and the Potency was inconclusive: 6.31 µM [inhibitor, full curve, poor fit].
In the case of `NCC(=O)N1CCCC2(Cc3ccccc3CN2C(=O)c2cccc(Cl)c2)C1` (configuration not stated), the “activity change, negative = inhibition” value is reported as inactive: 42.1%.
For `C=CCOc1ccc(CN(C)c2ccc(S(=O)(=O)N3CCN(C)CC3)cc2[N+](=O)[O-])cc1`, the Potency was inconclusive: 100 µM [inhibitor, partial curve, poor fit].
With `N=C(N)c1ccc(COC2CCCCC2)cc1` the “activity change, negative = inhibition” value was inactive: -10.1%.
With `CCCCc1c(-c2ccccc2OC)ncn1CCc1cccc(OC)c1` the Potency was inconclusive: 50.1 µM [inhibitor, single point].
In the case of `CC1CC1C(=O)Nc1ccc(SC2CCCC2)cc1` (configuration not stated), the Potency is reported as inconclusive: 100 µM [inhibitor, single point].
`COc1ccc(-c2n[nH]c(=S)n2-c2ccc(C)cc2C)cc1` was tested, and the Potency was active: 6.31 µM.
With `COc1ccc(-c2cc(C(=O)N3CCCCCC3)c3cc(C)ccc3n2)cc1` the “activity change, negative = inhibition” value was inactive: 5.75%.
`O=C(C[n+]1cccc(CNC(=O)c2ccc(OC(F)F)cc2)c1)Nc1ccc(SC(F)F)cc1` was tested, and the Potency was inconclusive: 50.1 µM [inhibitor, partial curve, poor fit].
`CS(=O)(=O)N(CC(=O)N1CCN(c2ccccc2)CC1)c1cccc(Br)c1` was tested, and the Potency was active: 28.2 µM.
For `C=CCN1C(=O)/C(=C/c2ccc(OCC(=O)O)cc2)S/C1=N/c1nccs1`, the “activity change, negative = inhibition” value was inactive: -24.5%.
With `CC(C)C(=O)N1CCC(Oc2ccccc2)C1` (configuration not stated) the Potency was inconclusive: 35.5 µM [inhibitor, full curve].
In the case of `COc1cc(OC)c(OC)cc1CN1CCN(Cc2cccn2C)CC1`, the Potency is reported as inconclusive: 0.708 µM [inhibitor, full curve, poor fit].
For `O=C(O)c1nccnc1C(=O)Nc1ccc(Oc2c(Cl)cccc2Cl)nc1`, the Potency was inconclusive: 3.98 µM [inhibitor, full curve, poor fit].
`O=C(CC1CCCCC1)Nc1cc(C(F)(F)F)ccc1Cl` was tested, and the “activity change, negative = inhibition” value was inactive: 6.89%.
`COc1cc(CN(C(=O)c2ccc3c(c2)OCC(=O)N3)C2CC2)ccc1OC(F)F` was tested, and the Potency was inconclusive: 79.4 µM [inhibitor, partial curve, poor fit].
For `COC(=O)CSc1nsc(SCC(=O)OC)n1`, the “activity change, negative = inhibition” value was inactive: -1.44%.
In the case of `O=C(Nc1cccs1)N1CCNc2cnc(Nc3cccc(F)c3)nc2C1`, the “activity change, negative = inhibition” value is reported as inactive: -1.04% [at 176 µM].
With `COc1ccc(NC(=S)NCc2ccc(F)cc2)cc1` the Potency was inconclusive: 50.1 µM [inhibitor, partial curve, poor fit].
`CCN1C(=O)c2ccccc2Sc2ccc(C(=O)NCCCN(CC(C)C)CC(C)C)cc21` was tested, and the Potency was “inactive”.
In the case of `Cc1ccc(CNC(=O)CC23CC4CC(CC(C4)C2)C3)cc1`, the “activity change, negative = inhibition” value is reported as inactive: -3.09%.
With `O=C(Nc1ccccc1)C1=C[C@@H](c2ccc(Br)cc2)C[C@@H](OCc2ccc(CO)cc2)O1` the Potency was inconclusive: 35.5 µM [inhibitor, full curve, poor fit].
For `Cc1c(-c2ccccc2)oc2c(C(=O)OCC(=O)Nc3cc(Cl)ccc3F)cccc2c1=O`, the “activity change, negative = inhibition” value was inactive: -13.1%.
With `Cn1c(=O)c2c(ncn2CC(=O)Nc2ccccc2C(=O)NC2CCCC2)n(C)c1=O` the “activity change, negative = inhibition” value was inactive: -13.1%.
In the case of `CNC(=S)Nc1ccc(OC)c(OC)c1`, the Potency is reported as inconclusive: 79.4 µM [inhibitor, partial curve, poor fit].
For `Cc1nc2c(C(=O)NCCC3=CCCCC3)c[nH]n2c(=O)c1Cl`, the Potency was inconclusive: 44.7 µM [inhibitor, partial curve, poor fit].
`CN1CCN([C@H]2CCN(C(=O)c3ccc(N(C)C)nc3)C[C@H]2CCC(=O)O)CC1` was tested, and the “activity change, negative = inhibition” value was inactive: 6.5%.
In the case of `Cc1ccc(C(C)NC(=O)c2ccc3c(c2)OCCO3)c(C)c1` (configuration not stated), the “activity change, negative = inhibition” value is reported as inactive: -49.8%.
With `CCC[C@@H](CNC)NC[C@H](Cc1ccccc1)NCCCCc1ccccc1` the “activity change, negative = inhibition” value was inactive: -3.33%.
With `COc1ccc(-c2nc(-c3ccccc3)nc3c2CN(C(=O)C2CCCC2)CC3)cc1` the Potency was inconclusive: 39.8 µM [inhibitor, full curve].
`O=c1c(-c2cc3ccccc3o2)[n+]([O-])c2ccccc2n1OCc1ccccn1` was tested, and the “activity change, negative = inhibition” value was inactive: -17.4%.
With `O=C1CN(C(=S)NC(=O)c2ccc(-c3ccccc3)cc2)CCN1` the Potency was inconclusive: 126 µM [inhibitor, partial curve, poor fit].
With `CCOC(=O)c1c(NC(=O)C(Sc2ccccc2)c2ccccc2)sc(C(=O)N(C)C)c1C` (configuration not stated) the “activity change, negative = inhibition” value was inactive: 2.39%.
With `CCC(=C(c1ccc(OC)cc1)c1ccc(OC)cc1)c1cn(CC(O)CN(CCO)CCO)c2ccccc12` (configuration not stated) the Potency was inconclusive: 56.2 µM [inhibitor, partial curve, poor fit].
For `C#CCN(Cc1nc(N2CCOCC2)c2ccc(Cl)cc2n1)Cc1ccco1`, the “activity change, negative = inhibition” value was inactive: 34.9%.
With `Cc1cccc(C(=O)Nc2nc(C)c(C(=O)Nc3ccc4c(c3)CCC4)s2)c1` the Potency was inconclusive: 44.7 µM [inhibitor, partial curve, poor fit].
For `CC(C)(CN1CCC(Cc2ccccc2)CC1)NS(=O)(=O)c1ccccc1`, the Potency was inconclusive: 10 µM [inhibitor, full curve, poor fit].
